HELM strings list residues between dots; [ac] is acetyl, [am] amide, other brackets name non-standard units.

The first data set can be described thus: general procedure: Fmoc solid-phase peptide synthesis; Fmoc-Ile-Wang resin; HBTU/NMM. Particulars: conjugation step.
With “ATP-1,8-Diam-Suc-1,8-Diam-Suc-pTyr-Glu-Glu-Ile-OH”, the conjugation yield is listed as 16.9%.
The same measure, in the same setting: under ATP-8-Aoct-pTyr-Glu-Glu-Ile-OH stands 17.3%; under ATP-11-Aund-pTyr-Glu-Glu-Ile-OH, 21.2%; under “PEPTIDE1{[8N3ATP].[Trioxa-Suc].[pTyr].[Glu(pN3anilide)].E.I}$$$$V2.0”, 32.0%.
Still for that read-out and setting: under “PEPTIDE1{[ATP].[6-Ahex].[pTyr].E.E.I}$$$$V2.0” stands 21.9%.
“PEPTIDE1{[ATP].[Trioxa-Suc].[pTyr].E.E.I}$$$$V2.0” yielded a conjugation yield of 14.9%.
“PEPTIDE1{[ATP].[bAla].[pTyr].E.E.I}$$$$V2.0” registered a conjugation yield of 35.7%.

The data set is the same for the next values; noted with them: whole synthesis, scale 0.1 mmol.
The substance “H2N-1,8-Diam-Suc-1,8-Diam-Suc-pTyr-Glu-Glu-Ile-OH” gave an isolated yield of 18%.
The same measure, in the same setting: under H2N-1,13-Trioxa-Suc-pTyr-Glu-Glu-Ile-OH stands 20%.

Values taken from US7799753B2 (Board of Governers for Higher Education, priority 2004, dated 2010).
